The nature of the experiment: qHTS Assay to Find Inhibitors of Chronic Active B-Cell Receptor Signaling. As to conditions: ABC-DLBCL IkBa-CBG/CBR reporter, luminescence ratio (green luciferase fused to IkBa over red control in TMD8 lymphoma cells), 4 h. The gist of the method: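 Compounds up to 46 uM were incubated four hours with TMD8 cells whose green CBG68 luciferase is fused to IkappaBalpha; red CBR luminescence normalised the signal, and concentration-effect curves were fitted to fusion, red and ratio data.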
(In general: qHTS replaces the single test concentration by a dilution series.)

Where [1] appears, read: measured here: CBR red luminescence, cell number.
Where [2] appears, read: measured here: IkBa-CBG green luminescence.

From PubChem BioAssay AID493014 (National Center for Advancing Translational Sciences (NCATS), 2011) come the findings set out here.

SMILES strings stand for the structures. Some of the results follow. The main result of the screen is listed elsewhere. These columns were measured beside it and carry no call. Compounds called inactive in the main read-out are mostly missing here. Words in brackets tell the shape of the fitted curve; partial curves, single points and poor fits give uncertain potencies.

Turning to `Cc1cccc(NC(=O)C2CCN(C(=O)[C@@H]3Cc4ccccc4CN3)CC2)c1`, under setting [1], the half-maximal activity concentration (AC50) (in general, the concentration giving half of the maximal activity seen) was 12.6 µM [falling, single point].
`C/C(=N\OCC(=O)Nc1ccccc1C(=O)O)c1cccs1`: under setting [1], the half-maximal activity concentration (AC50) was 6.31 µM [falling, partial curve].
Regarding `COc1ccc(C(=O)Nc2cccc(/C=C/c3nc4ccccc4c(=O)[nH]3)c2)cc1`, under setting [1], the AC50 is 3.98 µM [falling, full curve].
Still for that read-out and setting: the figure for `CCOC(=O)c1sc(NC(=O)C(CC)OC(=O)c2ccco2)nc1C` (stereo not drawn) is 10 µM [falling, partial curve].
For the compound `O=C(c1cc2ccccc2o1)N(Cc1nnc(-c2ccccc2Cl)o1)C1CC1`, under setting [1], the half-maximal activity concentration (AC50) is 5.8 µM [rising, full curve].
Same read-out and setting: the figure for `Cc1[nH]c2ccccc2c1C(O)CN1CCC2(CC1)OCCO2` (stereo not drawn) is 35.5 µM [falling, single point].
On the same count and under the same terms, under `CCOC(=O)C1=C(COC(=O)c2ccc([N+](=O)[O-])o2)NC(=O)NC1C` (stereo not drawn) stands 29.1 µM [rising, single point]; under `CCN(CC)S(=O)(=O)c1ccccc1/C=N\O`, 6.51 µM [falling, single point].
For the compound `O=C(Nc1nsc(-c2ccccc2)n1)c1ccc(F)cc1`, under setting [1], the AC50 is 3.98 µM [falling, full curve].
Consider `N#Cc1c(NC(=O)/C=C/c2ccco2)sc2c1CCCC2`, for which the half-maximal activity concentration (AC50) is 0.92 µM [rising, full curve] under setting [1] and 1.03 µM [falling, full curve] under setting [2].
As for `Cc1cc(OCCN2CCOCC2)nc2ccccc12`, the concentration at half-maximal activity (AC50) under setting [1] was 0.447 µM [rising, partial curve, poor fit].
On the same count and under the same terms, under `Cc1ccccc1C(=O)Oc1ccc(Sc2ccc(O)cc2)cc1` stands 31.6 µM [rising, single point].
Regarding `Cc1noc(C)c1CSc1nnnn1-c1ccc(Cl)cc1`, the half-maximal activity concentration (AC50) under setting [1] is 12.6 µM [rising, partial curve].
On the same count and under the same terms, under `CCn1cc(CN2CCC(C(=O)Nc3cccc(-c4cccc(Cl)c4)c3)CC2)c(C)n1` stands 35.5 µM [falling, single point]; under `COc1cccc(-c2cc(-c3cccnc3)c(C#N)c(N)n2)c1`, 15.8 µM [falling, partial curve, poor fit]; under `COC(=O)[C@H](C)NC(=O)c1cc2c(cn1)[nH]c1ccccc12`, 25.1 µM [falling, single point].
Still for that read-out and setting: under `O=C(NC1CCCCC1)c1cc(C2CC2)nn1-c1ccccc1` stands 20.6 µM [rising, partial curve, poor fit]; under `CCC1(c2ccc(C)cc2)NC(=O)N(CC(=O)Nc2cccc(S(=O)(=O)N3CCCC3)c2)C1=O` (stereo not drawn), 29.1 µM [rising, single point].
Still for that read-out and setting: under `CC(=O)Nc1ccc(NC(=O)Nc2ccc(C)cc2C)cc1` stands 11.2 µM [rising, single point]; under `Cc1ccc(-c2nc3ccc(Cl)cc3c(=O)n2O)cc1`, 7.94 µM [falling, partial curve, poor fit].
With `Cn1c(=O)[nH]c(=O)c2c1nc(N1CCOCC1)n2CCN1CCOCC1`, under setting [1], the half-maximal activity concentration (AC50) was 6.31 µM [falling, single point].
Still for that read-out and setting: under `CN(/N=C/c1ccncc1)C1=NCCN1` stands 10 µM [falling, partial curve, poor fit]; under `NC(=O)C1CC=CCC1C(=O)OCC(Cl)=C(Cl)Cl` (stereo not drawn), 35.5 µM [falling, partial curve, poor fit]; under `Fc1ccccc1-c1nc(NCc2ccccc2)c2ccccc2n1`, 10 µM [falling, partial curve, poor fit].
Take `O=C(NC(Cc1ccccc1)c1nc2ccccc2[nH]1)C1CC(=O)N(c2ccc3c(c2)OCCO3)C1` (stereo not drawn): the AC50 under setting [1] is 20 µM [falling, partial curve, poor fit].
Same read-out and setting: the figure for `O=C(c1ccccc1)N1CCC(c2nc(-c3ccc(S(=O)(=O)N4CCOCC4)cc3)no2)CC1` is 22.4 µM [falling, single point]; for `CC(=O)Nc1nc(CCN2C(=O)c3ccccc3C2=O)cs1` it is 0.562 µM [rising, full curve, poor fit].
Still for that read-out and setting: under `CC(C)C(=O)Nc1nnc(CCc2ccccc2)s1` stands 1.78 µM [rising, partial curve, poor fit].
For `Cc1ccc(NC(=S)N/C(=N/S(=O)(=O)c2ccccc2)c2ccccc2)cc1`, the AC50 under setting [1] was 29.1 µM [falling, single point].
For `COc1ccc(-c2ccc(OC)c([C@H]3[C@H]4C=CC[C@@H](C)[C@@H]4C(=O)N3Cc3ccccc3)c2)cc1C`, the AC50 under setting [1] was 1 µM [rising, full curve, poor fit].
For `COC(=O)c1ccc2c(=O)n(CCCCCC(=O)NCc3ccccn3)c(=O)[nH]c2c1`, the AC50 is, setting by setting: under setting [1], 0.82 µM [falling, full curve, poor fit]; under setting [2], 0.259 µM [rising, full curve].
On to `O=C1NCCNC1(c1c[nH]c2ccccc12)C(F)(F)F` (stereo not drawn), for which the AC50 under setting [1] is 29.1 µM [rising, single point].
The same measure, in the same setting: the figure for `COc1ccc(N2CCN(C(=O)Cc3cccs3)CC2)cc1` is 14.6 µM [rising, partial curve]; for `O=C(Nc1nnc(C2CC2)s1)c1cc(-c2ccccc2)nn1-c1ccccc1` it is 14.1 µM [falling, partial curve, poor fit]; for `COc1cccc(/C=N/Nc2nc(Nc3ccc([N+](=O)[O-])cc3)nc(N3CCCC3)n2)c1O` it is 2.51 µM [falling, full curve, poor fit].
The same measure, in the same setting: the figure for `Cc1ccnc(NC(=O)c2ccc(N3C(=O)CCC3=O)cc2)c1` is 10 µM [falling, partial curve, poor fit].
Same read-out and setting: the figure for `O=C(NCCc1ccccc1)c1ccccc1NC(=O)C1CCCCC1C(=O)O` (stereo not drawn) is 12.6 µM [falling, single point]; for `Cc1ccc(N=C2NC(=O)/C(=C/c3cccnc3)S2)c(C)c1` it is 22.4 µM [falling, single point].
Consider `NNC(=O)C(Cc1cnc[nH]1)NC(=O)OCc1ccccc1` (stereo not drawn), for which the AC50 under setting [1] was 7.08 µM [rising, single point].
The same measure, in the same setting: the figure for `O=[N+]([O-])c1ccc(Oc2cccc(C(F)(F)F)c2)nc1` is 6.31 µM [rising, partial curve].
On to `CC(O)c1nc2ccccc2n1C1CCCCC1` (stereo not drawn), for which the AC50 under setting [1] is 4.11 µM [rising, partial curve].
